Test results from PubChem BioAssay AID493014 (National Center for Advancing Translational Sciences (NCATS), 2011).
Screen size: about 340,000 compounds; about 170 (0.05%) were called active. Inconclusive results, whose numbers are uncertain, are shown with a selection of clear calls. Calls come from the whole dose curve; as a rule, active = well fitted inhibition curve with a large enough effect in the signal ratio, with a control signal flat (not every such curve was filed as active); inconclusive = small, poorly fitted or top-dose-only effect, or effect the other way, or a change in a side signal; inactive = flat fitted curve, though single readings scatter; the % refers to the signal ratio. Where the call is inconclusive, the potency comes from a doubtful curve fit.
Potency is the fitted concentration of half-maximal effect.

Test: qHTS Assay to Find Inhibitors of Chronic Active B-Cell Receptor Signaling;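 for activity change, negative = inhibition: plate controls were basal doxycycline-induced cells for no effect and cells given 10 µM MG132 for full effect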
Conditions: ABC-DLBCL IkBa-CBG/CBR reporter, luminescence ratio (green luciferase fused to IkBa over red control in TMD8 lymphoma cells), 4 h; activity change, negative = inhibition: at 46.1 µM (top of the series)
How it was run: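 TMD8 human ABC-DLBCL cells with doxycycline-inducible IκBα–green luciferase fusion and unfused red luciferase, in 0.5% FBS medium; compounds up to 46 uM, 4 h at 37C. Green/red luminescence ratio, filter-overlap corrected, fitted to concentration-response curves.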
For CNCCOc1ccccc1-c1ccccc1, the activity change, negative = inhibition was inconclusive: 9.02%. In the case of Cc1cccc(C(=O)N(CC(=O)Nc2sc(C)c(C)c2C(N)=O)C2CCCC2)c1, the activity change, negative = inhibition is reported as inconclusive: 10.2%. In the case of CCCCOC(=O)c1ccc(NC(=O)C2CCCO2)cc1 (configuration not stated), the activity change, negative = inhibition is reported as inconclusive: 0.506%. With O=C(NCCCN1CCOCC1)C(=O)NCc1ccccc1Cl the Potency was inconclusive: 2.82 µM [falling, partial curve, poor fit]. In the case of CCC(=O)N1CCc2cc(Br)cc(S(=O)(=O)NCCN3CCCC3)c21, the activity change, negative = inhibition is reported as inconclusive: 0.776%. For CCOC(=O)C1(Cc2ccccc2)CCCN(Cc2ccncc2)C1 (configuration not stated), the activity change, negative = inhibition was inconclusive: 18.8%. For CN(C)c1ccc(/C=C(\C#N)C(=O)OCC(=O)N(C)C2CCS(=O)(=O)C2)cc1 (configuration not stated), the activity change, negative = inhibition was inconclusive: 2.91%. For CCOC(=O)C1CCCN(Cc2cccc(Cl)c2)C1 (configuration not stated), the activity change, negative = inhibition was inconclusive: -65.6%. In the case of COc1ccc(-c2cnc3c(c2)CCC3(C#N)C#N)cc1, the Potency is reported as inconclusive: 13 µM [falling, partial curve]. With Cc1ccc(C(=O)N/C(=C\c2cccs2)C(=O)NCCCn2ccnc2)cc1C the activity change, negative = inhibition was inconclusive: 1.54%. With CCCCOc1ccc(-c2nnn(C(C)(C)C(=O)OC)n2)cc1 the activity change, negative = inhibition was inconclusive: -3.16%. For Cc1ccc(C)c(CS(=O)(=O)c2cn(CC(=O)N3CCCCC3)c3ccccc23)c1, the activity change, negative = inhibition was inconclusive: -15%. In the case of COC(=O)C1=C(C)N(CCc2cc(OC)c(OC)c(OC)c2)C(=O)N[C@H]1c1ccc(Br)cc1, the “activity change, negative = inhibition” value is reported as inactive: -8.77%. For CCCCN(CCCC)/C(N)=N/c1nc(C)cc(C)n1, the activity change, negative = inhibition was inconclusive: -0.407%. In the case of Cc1ccc(Nc2ncccc2C(=O)NCc2cccs2)c(C)c1, the Potency is reported as inconclusive: 15.8 µM [rising, partial curve, poor fit]. In the case of O=C(Nc1ccc(NC(=O)c2ccco2)cc1)c1cnccn1, the Potency is reported as inconclusive: 11.2 µM [falling, partial curve]. With Cc1nnc(NC(=O)CSc2ccc(-c3cccnc3)nn2)s1 the “activity change, negative = inhibition” value was inactive: 2.58%. For COc1ccc2nc(NC(=O)CSc3nc4cccnc4n3C)sc2c1, the activity change, negative = inhibition was inconclusive: 2.67%. In the case of Cc1ccc(C(=O)C(C)OC(=O)c2ccccc2[N+](=O)[O-])cc1 (configuration not stated), the activity change, negative = inhibition is reported as inconclusive: 3.42%. For O=C(CCCN1C(=O)/C(=C/c2ccco2)SC1=S)Nc1ccccc1C(=O)O, the activity change, negative = inhibition was inconclusive: 4.08%. With CC(C)C(=O)Nc1cc2c3c(c1)CCN3C(=O)CC2 the activity change, negative = inhibition was inconclusive: 0.144%. With COc1cccc(NC(=O)Cn2cc3c(n2)CCCCC3)c1 the Potency was inconclusive: 8.2 µM [falling, partial curve]. In the case of COCCN(CC(=O)Nc1cccc(C)c1C)C(=O)Cc1cccs1, the activity change, negative = inhibition is reported as inconclusive: 2.95%. In the case of COc1ccc(S(=O)(=O)Nc2ccc(NC(C)=O)cc2)cc1OC, the activity change, negative = inhibition is reported as inconclusive: 1.1%. In the case of CCOC(=O)C(C)Sc1nnc(NC(=O)c2ccc(C)c([N+](=O)[O-])c2)s1 (configuration not stated), the Potency is reported as inconclusive: 29.1 µM [falling, single point]. For NC(=O)Oc1cccc(OC(N)=O)c1, the activity change, negative = inhibition was inconclusive: -1.65%. In the case of COc1ccc(C(CNC(=O)c2ccc(-n3cnnn3)cc2)N2CCOCC2)cc1 (configuration not stated), the activity change, negative = inhibition is reported as inconclusive: -0.819%. For Cc1ccc(S(=O)(=O)CCC(=O)Nc2nc(-c3ccccn3)cs2)cc1, the “activity change, negative = inhibition” value was inactive: 4.99%. With NC(=O)CCCn1c(C(=O)c2ccc(Cl)cc2)c2ccc(C(F)(F)F)cc2[n+]1[O-] the Potency was inconclusive: 7.31 µM [falling, partial curve]. For O=C(O)c1cccc(NC(=O)C23CC4CC(C2)CC(n2cnc(Cl)n2)(C4)C3)c1, the “activity change, negative = inhibition” value was inactive: 6.17%. For COc1cc(NC(=O)CSc2nnnn2C2CCCC2)cc(OC)c1, the activity change, negative = inhibition was inconclusive: 0.674%. With CCc1ccc(NC(=O)c2cc(Br)ccc2Br)cc1 the Potency was inconclusive: 8.91 µM [falling, partial curve]. In the case of CCOc1ccccc1N1CSC2=C(C#N)C(c3c(OC)ccc4ccccc34)CC(=O)N2C1 (configuration not stated), the activity change, negative = inhibition is reported as inconclusive: -17.9%. For CC(C)(C)OC(=O)NCC12C=CC(O1)C1C(=O)N(Cc3ccccc3)C(=O)C12 (configuration not stated), the activity change, negative = inhibition was inconclusive: -14.3%. In the case of CCOc1ccc(Nc2nc3ccccc3n3cnnc23)cc1, the activity change, negative = inhibition is reported as inconclusive: 11.6%. With CCCCN1Cc2cc(C(=O)c3cc(OC)ccc3O)cnc2NC1=O the activity change, negative = inhibition was inconclusive: 1.61%. In the case of Cc1ccc(S(=O)(=O)N(C)c2ccc(C(=O)NCc3cccnc3)cc2)cc1, the “activity change, negative = inhibition” value is reported as inactive: 0.691%. For CCCCOc1ccc(C(=O)N/C(=C/C=C/c2ccccc2)C(=O)NCCO)cc1, the activity change, negative = inhibition was inconclusive: -0.228%. For CCOC(=O)Cn1ccc(NC(=O)COc2ccc(F)cc2)n1, the Potency was inconclusive: 35.5 µM [rising, single point]. For COc1ccc(C(=O)CSc2nc(N)nc(SC)c2C#N)cc1, the Potency was inconclusive: 1.64 µM [rising, partial curve, poor fit]. For Cc1ccc(/C=C/C(=O)NCCc2cccc(Cl)c2)o1, the activity change, negative = inhibition was inconclusive: -0.466%. With COc1ccc(/C=C/C(=O)Nc2ccccc2C(F)(F)F)cc1 the Potency was inconclusive: 7.31 µM [falling, partial curve]. In the case of CC[C@@H]1CC=C[C@H]2[C@H]1C(=O)N(Cc1ccccc1)[C@H]2c1ccoc1, the activity change, negative = inhibition is reported as inconclusive: -16.1%. For COc1cc2nc(Nc3cccc(F)c3)nc(N)c2cc1OC, the activity change, negative = inhibition was inconclusive: -25.9%. With COc1cc(NC(=O)CSc2nc3c(c(=O)n(C)c(=O)n3C)n2C)cc(OC)c1 the activity change, negative = inhibition was inconclusive: -9.2%. For CN(C)CCC[C@]1(c2ccc(F)cc2)OCc2cc(C#N)ccc21, the Potency was inconclusive: 35.5 µM [falling, single point]. With COc1ccc(/C=N/NC(=O)c2cccc(Br)c2)cc1Cn1cc(Cl)cn1 the activity change, negative = inhibition was inconclusive: -1.51%. With Cc1cc(CN2C(=O)c3ccccc3C2=O)cc(N2CCOCC2)c1 the “activity change, negative = inhibition” value was inactive: -21.1%. For COc1cc(NC(=O)C2C3C=CC(C3)C2C(=O)O)ccc1NC(=O)c1ccccc1 (configuration not stated), the activity change, negative = inhibition was inconclusive: -0.0632%. For c1ccc(SCc2nc(-c3cccnc3)no2)cc1, the activity change, negative = inhibition was inconclusive: -96.8%. For CC(=O)Nc1ccc(NC(=O)c2ccccc2C)cc1, the Potency was inconclusive: 25.9 µM [falling, partial curve]. For NC(=O)c1ccsc1NC(=O)COC(=O)CCCOc1ccccc1, the activity change, negative = inhibition was inconclusive: -6.62%.
